{"source": "PubChem BioAssay AID1347423", "about": "(Functional Genomics Laboratory (NCATS/FGL), 2020)", "note": "About 210 (0.4%) of roughly 52,000 sequences were called active.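 How the source made its calls: active means gene whose silencing raises cell survival under the drug, median off-target-corrected z-score across its silencing RNAs 2 or more; inactive means the rest.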 The list shows a part of the results.", "data": [{"test": "Resistance to Poly (ADP-Ribose) Polymerase inhibitor: Gene Identification via Genome-wide siRNA Screen", "settings": "mouse BRCA2 R2336H ES cells, olaparib, CellTiter-Glo viability; hits give high values", "outline": "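Genome-wide siRNA screen (3 siRNAs/gene, 20 nM) in mouse ES cells carrying hypomorphic BRCA2 R2336H; olaparib 500 nM added 48 h post-transfection, CellTiter-Glo viability 72 h later. Normalized to plate-median negative control; MAD z-scores, gene median, seed-adjusted.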", "values": [{"sequence": "GGGAGUUUGACAUUUUCGATT against Lect2", "z-score": "inactive: 0.0814"}, {"sequence": "GGCUCCACCAAAGCCUGUUTT against 2310066N05Rik", "z-score": "inactive: -2.31"}, {"sequence": "GGUGGUCAGGAAAUGAGUCTT against Lrch4", "z-score": "inactive: -0.0125"}, {"sequence": "GCAUUGUGUCACAAAAUUUTT against Pde5a", "z-score": "inactive: 0.645"}, {"sequence": "GGACCAUGUGACAAAGCCUTT against 6330503C03Rik", "z-score": "inactive: 0.788"}, {"sequence": "CCUGCCUGGACUAUCAAGATT against A530095I07Rik", "z-score": "inactive: 1.06"}, {"sequence": "GGCUGUCGGUUCAUUAACCTT against Atad1", "z-score": "inactive: 1.86"}, {"sequence": "GCCUCUGAACUGAAAAAAATT against BC054438", "z-score": "inactive: -0.172"}, {"sequence": "CCUAUGUUUGGUGAUUAUGTT against Alg6", "z-score": "inactive: -0.95"}, {"sequence": "GCUAGAUCUCACCAAACUUTT against Ddx21", "z-score": "inactive: 0.391"}, {"sequence": "CCUAUCGAGUGAAAGUAAATT against Abcg2", "z-score": "inactive: -0.876"}, {"sequence": "GGAACUCAAGUUGUCUAUGTT against Plekhb2", "z-score": "inactive: -2.39"}, {"sequence": "CCAUUGACUCAGUUAAAACTT against Semcap2", "z-score": "inactive: 0.306"}, {"sequence": "GGUGAAAUUCUGAAUGAAATT against Pet112l", "z-score": "inactive: 1.27"}, {"sequence": "GCCAUGUUCAAAUUGACGGTT against Pik4ca", "z-score": "inactive: 0.256"}, {"sequence": "CCUCUCAAGAAAUCGUGCATT against Trim47", "z-score": "inactive: 1.24"}, {"sequence": "GCAAAAUUGGUUCCAAUGGTT against Rad51", "z-score": "inactive: -2.26"}, {"sequence": "CCAAUACUAUACCAACUGCTT against Cacna1g", "z-score": "inactive: -0.207"}, {"sequence": "GGUCUAAGUCUGAAUGGCCTT against Agrp", "z-score": "inactive: 0.884"}, {"sequence": "GCUUGUUAGUUUAAUUAGGTT against Elovl5", "z-score": "inactive: 0.18"}, {"sequence": "GGAAAAGAAAGAUGUGACUTT against 1810044A24Rik", "z-score": "inactive: -0.637"}, {"sequence": "GGAGAUACCCAAUCUCAGATT against Eapa2", "z-score": "inactive: 0.245"}, {"sequence": "GAAAGAAAAUCGUGUCAGATT against Olfr1199", "z-score": "inactive: 0.5"}, {"sequence": "CCGAGCUUAUCGACAGGUATT against Stk24", "z-score": "inactive: 1.96"}, {"sequence": "GCAAUAAUGAGACCUGCACTT against Edem1", "z-score": "inactive: -1.37"}, {"sequence": "GGUUUGAGCCACCUACUAUTT against Bcdo2", "z-score": "inactive: 0.661"}, {"sequence": "CGUGACCUGAAAGUAUUUGTT against Gpc3", "z-score": "inactive: 0.589"}, {"sequence": "CGAGAAGAUUACCAUAAAUTT against Homez", "z-score": "inactive: -0.437"}, {"sequence": "GGAGUUUUAUGCUGAGCAGTT against 2510005D08Rik", "z-score": "inactive: 0.767"}, {"sequence": "GCUCUCUGCACCAGAGUAUTT against BC048082", "z-score": "inactive: -2.74"}, {"sequence": "GGAUGAGCAAGAAAUCCCUTT against 3110023B02Rik", "z-score": "inactive: 0.444"}, {"sequence": "GGCAUCCAUCAACAACAGGTT against Ahsa1", "z-score": "inactive: 0.188"}, {"sequence": "GGAAUACUAUGACAGGAAGTT against Tnfrsf1b", "z-score": "inactive: -2.79"}, {"sequence": "GGUUUUGCUAGUAAGAAAGTT against Trim3", "z-score": "inactive: -0.122"}, {"sequence": "GCUGUGGUUGUCCAACAAGTT against Il17b", "z-score": "inactive: 1.58"}, {"sequence": "GGCUCAAAAGUCUUGGGACTT against Hells", "z-score": "inactive: -0.169"}, {"sequence": "GGACUUUAAGCUCGACUUCTT against A030007L17Rik", "z-score": "inactive: -0.067"}, {"sequence": "GGGUAAGAAGAACAUGUAGTT against Tgfbi", "z-score": "inactive: 0.859"}, {"sequence": "GGAACUAAUUUUCACAGAGTT against Lmod2", "z-score": "inactive: 0.88"}, {"sequence": "CCACUGAAGACGUGAAGCUTT against 2610040C18Rik", "z-score": "inactive: -1.9"}, {"sequence": "GGUGAUAUUCUUUAAAGACTT against Mmp1b", "z-score": "inactive: 0.57"}, {"sequence": "GGUGGUGAAGAAUUUUCUUTT against Serpini1", "z-score": "inactive: 1.19"}, {"sequence": "GCAAUGGUGGUUCUAAUAUTT against Cmya5", "z-score": "inactive: -1.85"}, {"sequence": "GGGAACAUUAUGUGCUGGCTT against Pou2af1", "z-score": "inactive: 0.934"}, {"sequence": "GAACAUGGCUUGCUUCAGATT against 1500011K16Rik", "z-score": "inactive: 0.739"}, {"sequence": "GCUGCACAACCUUUAUCAATT against Spata4", "z-score": "inactive: 1.21"}, {"sequence": "GCUGCUAAGUGAAUCCAACTT against 2410127E16Rik", "z-score": "inactive: -0.0876"}, {"sequence": "GCUUUCAAGGGAUGAUUCATT against Zc3hav1", "z-score": "inactive: -0.835"}, {"sequence": "GGAGAAAAUAAGCUGGUAGTT against Slc35f1", "z-score": "inactive: 0.229"}, {"sequence": "GGUCAAGGAGAUCACCUUCTT against Comp", "z-score": "inactive: -0.501"}, {"sequence": "GCCAUGUUUAAGCAAUUGUTT against Vsx1", "z-score": "inactive: 0.537"}, {"sequence": "GCACUGAGCUUGACAAAGATT against Upp2", "z-score": "inactive: -0.404"}, {"sequence": "GCCAUAGCAUAGCUCCCAGTT against 5330408N05Rik", "z-score": "inactive: 1.74"}, {"sequence": "GGAAGACAUACUGUUGAAATT against 1110005A03Rik", "z-score": "inactive: -0.533"}, {"sequence": "GGAUAGCUCUAUUAUCUCUTT against Serpinb3c", "z-score": "inactive: -1.63"}, {"sequence": "GGGAGGACAGUCAUUGGUUTT against Phldb1", "z-score": "inactive: -0.723"}, {"sequence": "GGGAAACACAAUUUACCUUTT against Elf1", "z-score": "inactive: 0.951"}, {"sequence": "GCUCCAGGGAGUUAACUGUTT against Osr2", "z-score": "inactive: -0.95"}, {"sequence": "GGUUUUUAAGGGAAGGCCCTT against 2610205E22Rik", "z-score": "inactive: 0.312"}, {"sequence": "GGACGUGAGCUCUCUCUUCTT against Ap2b1", "z-score": "inactive: -0.227"}, {"sequence": "GGGAAUUCGUCUCUAGAUATT against Cabyr", "z-score": "inactive: -0.149"}, {"sequence": "GGUGCUAGGAAUGAACGGGTT against Ripply1", "z-score": "inactive: 0.323"}, {"sequence": "GCAUGUGUAUGAUAAGAUCTT against 2700023J09Rik", "z-score": "inactive: 0.422"}, {"sequence": "GGGAAAUGGAGAGAUUUUUTT against Tnpo1", "z-score": "inactive: 1.61"}, {"sequence": "CCCAGAGCUCCAAUUGCCUTT against Olfr938", "z-score": "inactive: -1"}, {"sequence": "CCAUUUUUGAGUAUGUUGGTT against C430003P19Rik", "z-score": "inactive: 0.101"}, {"sequence": "GCCUCAUCCCUAUAGUCCUTT against 1700026L06Rik", "z-score": "inactive: 0.895"}, {"sequence": "GGAAAAGAAUUUCCUCCCUTT against Aspa", "z-score": "inactive: 2.13"}, {"sequence": "GCAGAUACUGAGAUGCUAUTT against Dkk4", "z-score": "inactive: -0.264"}, {"sequence": "GGAAAUGGGUCUUGAAGUUTT against C330018J07Rik", "z-score": "inactive: 1.57"}, {"sequence": "CCUGACAGUAGUUACAGUATT against Olfr1080", "z-score": "inactive: -0.363"}, {"sequence": "GGGAGACAUUCAUUAUCAGTT against Viaat", "z-score": "inactive: 0.562"}, {"sequence": "GGGAGGAACCUUUGAGAAUTT against Spats2", "z-score": "inactive: 0.341"}, {"sequence": "GGUAGAGAACCAGAGGCAUTT against Ninj2", "z-score": "inactive: -1.57"}, {"sequence": "GGCACUCAAAAACUGUGAGTT against Mrps7", "z-score": "inactive: 0.0954"}, {"sequence": "CCAAGAACUAUAUUUCUUCTT against Tars", "z-score": "inactive: -0.618"}, {"sequence": "GGAAGUGAAUGGACAGCCATT against Mpp2", "z-score": "inactive: -1.88"}, {"sequence": "CCUCUCUCAACCAGUGAAATT against Grb7", "z-score": "inactive: -1.25"}, {"sequence": "GGAGAAAGAGACGGACAACTT against Fgfr1", "z-score": "inactive: 0.843"}, {"sequence": "GGAGAAGCUACUCAACAAUTT against Ndufs8", "z-score": "inactive: 0.448"}, {"sequence": "GCCACUGGUUCACCAUGCATT against Ugt1a12", "z-score": "inactive: -0.351"}, {"sequence": "GGACCUGAGUGUGUCUCAGTT against Serpina3m", "z-score": "inactive: 0.445"}, {"sequence": "GGAGGAAAUGAAAACCUUUTT against 2610507L03Rik", "z-score": "inactive: 0.595"}, {"sequence": "GGAGUUUGAUCAGAUCCUATT against Asf1b", "z-score": "inactive: -0.3"}, {"sequence": "GGAAGCAUGCGAGAUCUAUTT against Napa", "z-score": "inactive: 0.336"}, {"sequence": "GGAAGAAAAGACUUAUCGUTT against 1200003C05Rik", "z-score": "inactive: 0.233"}, {"sequence": "GGAAGCAGAUCAAAGACAUTT against Efhd2", "z-score": "inactive: 0.132"}, {"sequence": "GGUGUUGAACGAGUGGAUCTT against 2410016F19Rik", "z-score": "inactive: -0.0446"}, {"sequence": "GCUAUAUCCACCUUAUGUCTT against Pigq", "z-score": "inactive: -0.977"}, {"sequence": "GGAUCCCAGGGAUCGAAUGTT against Osbpl9", "z-score": "inactive: -0.566"}, {"sequence": "CCAUUCCUUAAAAGAGCAUTT against 1110058A15Rik", "z-score": "inactive: 1.71"}, {"sequence": "GGGUGAUUUUUGUAAGAUATT against Mpp2", "z-score": "inactive: 0.798"}, {"sequence": "CCUCUUACUGCUCUAUGGATT against Bzrpl1", "z-score": "inactive: 0.59"}, {"sequence": "CGGACUAUAUAGAGAGGGATT against Purg", "z-score": "inactive: -1.1"}, {"sequence": "CGUACAAGACAGGUCGGUCTT against MGC103250", "z-score": "inactive: 0.067"}, {"sequence": "GGAGUCCACCCUUCAUCUGTT against Rps27a", "z-score": "inactive: -2.62"}, {"sequence": "GGACAGGCAGCUAACACUATT against Foxk1", "z-score": "inactive: -1.61"}, {"sequence": "CCAGGAACACUAAUAACACTT against 2310005E10Rik", "z-score": "inactive: -0.0607"}, {"sequence": "CCAGUAUGAAAGCUUAAAGTT against Ipo13", "z-score": "inactive: 0.558"}, {"sequence": "GCACUCUUUCCAAAAUAGUTT against Klf12", "z-score": "inactive: 0.519"}, {"sequence": "GGCUCGGGUCUUUAACGAATT against Copg", "z-score": "inactive: -0.69"}, {"sequence": "GGGAAAGUAAUUGAUAAACTT against Mtrr", "z-score": "inactive: 0.321"}, {"sequence": "CCUGAUCUAAUCCUAAAUGTT against Pgr", "z-score": "inactive: 0.53"}, {"sequence": "GGGACAACCUGGAUGACAUTT against Coq6", "z-score": "inactive: -0.492"}]}]}
